The whole screen tested about 300,000 compounds, of which about 3,700 (1.2%) were called active. Inconclusive results, whose numbers are uncertain, are shown with a selection of clear calls. Calls follow the shape of the full dose curve; tested in HEK293 cells. A potency beside an inconclusive call is a rough fit, not a confirmed value.
assay: qHTS for Inhibitors of binding or entry into cells for Lassa Virus; details: Lassa virus pseudotype entry inhibition, cell reporter; activity change, negative = inhibition: at 37.9 µM (top of the series) unless noted; also: nearly all actives have a fitted effect of over 50% in size
% is scaled to controls: 0 for no effect and ±100 for the full control effect; potency is read from the fitted curve at half-maximal effect.

Row | Compound | activity change, negative = inhibition | Potency
1 | O=C(C1CCC1)N1CCc2cc(S(=O)(=O)NCc3ccco3)ccc21 | inactive: -3.5% | –
2 | CC(=O)c1ccc(NC(=O)c2cc(-c3cccs3)on2)cc1 | – | inconclusive: 35.5 µM [inhibitor, single point]
3 | COc1ccc(NS(=O)(=O)c2cc(OC)ccc2OC)cc1 | inactive: -1.31% | –
4 | COc1cccc(OCc2nnc(SCC(=O)NNC(=O)C3CCCCC3)n2C)c1 | inactive: -11.3% | –
5 | CCS(=O)(=O)Nc1cccc(C2=NN(C(=O)c3ccco3)C(c3ccco3)C2)c1 (stereo not given) | – | inconclusive: 7.08 µM [inhibitor, full curve, poor fit]
6 | Cc1ccc(C(=O)NC(c2ccccc2)C(Cl)Cl)cc1 (stereo not given) | inactive: 3.79% | –
7 | CCn1c(/C=C/c2ccccc2)nc2ccccc21 | – | inconclusive: 16.4 µM [inhibitor, single point]
8 | CCOC(=O)c1c(-c2ccccc2Cl)cn2ccccc12 | – | active: 13 µM
9 | CC(C)c1ccc(NC(=O)C2(C)Cc3ccccc3C(=O)O2)cc1 (stereo not given) | inactive: 1.79% [at 46.1 µM] | –
10 | CCC(CC)COC(=O)C(C#N)c1nc2ccccc2nc1N1CCOCC1 (stereo not given) | – | inconclusive: 23.1 µM [inhibitor, partial curve, poor fit]
11 | CN(CC(=O)Nc1ccc(F)c(Cl)c1)S(=O)(=O)c1cccc2nsnc12 | – | inconclusive: 32.6 µM [inhibitor, single point]
12 | CS(=O)(=O)N1CCN(c2ccc([N+](=O)[O-])c(SCc3ccco3)c2)CC1 | – | inconclusive: 2.82 µM [inhibitor, partial curve, poor fit]
13 | O=C(N/N=C/c1ccc(Cl)cc1)c1n[nH]c2c1CCCC2 | – | inconclusive: 5.01 µM [inhibitor, partial curve]
14 | CCN1CCC(N(Cc2ccc(F)cc2)C(=O)Nc2cc(Cl)ccc2C(=O)OC)CC1 | – | inconclusive: 35.5 µM [inhibitor, single point]
15 | CCn1c(/C=C/N(C)c2ccccc2)[n+](CC)c2ccc(Cl)cc21 | – | active: 8.2 µM
16 | Cc1ccc(NS(=O)(=O)c2cccc(C(=O)Nc3cccnc3)c2)c(C)c1 | – | inconclusive: 20 µM [inhibitor, single point]
17 | COc1ccc2nc(NC(=O)Nc3cccc4ccccc34)sc2c1 | inactive: -13% | –
18 | NS(=O)(=O)c1ccc(CCNC(=O)c2ccc(NC3=NC4CS(=O)(=O)CC4S3)cc2)cc1 (stereo not given) | inactive: -1.43% [at 46.1 µM] | –
19 | CCOc1cc(/C=N/NC(=O)OC)ccc1OCCSc1ccc(Cl)cc1 | – | inconclusive: 7.31 µM [inhibitor, partial curve]
20 | Cc1nc2ccc(Cl)cn2c1C(=O)NN | – | inconclusive: 12.6 µM [inhibitor, partial curve]
21 | CCN1C(=O)/C(=C\c2cn(-c3ccccc3)nc2-c2cccnc2)SC1=S | – | inconclusive: 0.0891 µM [activator, full curve, poor fit]
22 | CCOC(=O)C1=C(C)NC(=O)NC1c1cc(Br)c(O)c(OC)c1 (stereo not given) | inactive: 8.32% | –

Row | Compound | activity change, negative = inhibition | Potency
23 | Cc1ccc(CNC(=O)CCC2CCCN(Cc3cccc4ncccc34)C2)o1 (stereo not given) | – | inconclusive: 0.708 µM [inhibitor, full curve, poor fit]
24 | COc1ccc(CNC(=O)CN(Cc2ccccc2Cl)C(=O)c2csnn2)cc1 | – | inconclusive: 6.31 µM [inhibitor, single point]
25 | COc1cc(NC(=O)CSc2nc(C)cs2)cc(OC)c1 | inactive: 18.1% | –
26 | Cc1nn(C)c2c1c(-c1ccccc1)cc(=O)n2Cc1ccc(Cl)cc1 | – | inconclusive: 35.5 µM [inhibitor, single point]
27 | Cc1cc2cc(CCNC(=O)c3cccs3)c(=O)[nH]c2cc1C | – | inconclusive: 2.59 µM [activator, full curve, poor fit]
28 | Cc1ncc(CO)c(CNc2ccc(Oc3ccccc3)cc2)c1O | – | inconclusive: 3.98 µM [inhibitor, full curve, poor fit]
29 | COc1ccc(C(C(=O)NC(C)(C)C)N(C(=O)CCC(=O)Nc2cc(C)on2)c2ccc(C)c(C)c2)cc1 (stereo not given) | – | inconclusive: 6.31 µM [inhibitor, single point]
30 | CCOC(=O)CN(Cc1ccc(OC)c(OC)c1)S(=O)(=O)c1ccc(OC)cc1 | inactive: -21.2% | –
31 | Cc1ccc(NC(=S)N(CCCN2CCC(C)CC2)Cc2ccco2)cc1C | – | inconclusive: 1.26 µM [inhibitor, single point]
32 | O=C(Nc1cccc(Cl)c1)Nc1csc([N+](=O)[O-])c1 | – | inconclusive: 35.5 µM [inhibitor, single point]
33 | COc1ccc([N+](=O)[O-])cc1NCc1cccnc1 | – | inconclusive: 0.562 µM [inhibitor, full curve, poor fit]
34 | COc1ccc2c(c1)c1c(c(=O)n(-c3ccccc3C)c(=O)n1CC(=O)N1CCCC1)n2C | inactive: 6.33% [at 46.1 µM] | –
35 | Cn1c(=O)[nH]c(=O)c2c1nc(N1CCNCC1)n2Cc1ccccc1 | – | inconclusive: 1.26 µM [inhibitor, single point]
36 | O=C(Nc1ccc(CN2CCOCC2)cc1)c1ccc(-c2ccc(Br)cc2)o1 | – | inconclusive: 18.3 µM [inhibitor, single point]
37 | COc1ccc(NC(=S)Nc2ccccn2)c(OC)c1 | – | inconclusive: 0.631 µM [activator, single point]
38 | Cc1ccc(S(=O)(=O)Oc2ccc(/C=N/NC(=O)c3nn(C)cc3[N+](=O)[O-])cc2)cc1 | – | inconclusive: 1.16 µM [inhibitor, partial curve]
39 | COc1cccc(CN2C(=O)CN(C3CCCCC3)C(=O)C2c2ccc(OC)c(OC)c2)c1 (stereo not given) | – | inconclusive: 35.5 µM [activator, single point]
40 | CCCCOc1ccccc1C1NC(=O)CCC1[N+](=O)[O-] (stereo not given) | – | inconclusive: 1.26 µM [activator, single point]
41 | CCNC(=S)/N=C(/Nc1ccccc1)Nc1nc(C)cc(C)n1 | – | inconclusive: 35.5 µM [inhibitor, single point]
42 | CCCCCn1cc2c(c1-c1ccc(Cl)cc1)c(=O)n(C)c(=O)n2C | – | inconclusive: 2.82 µM [inhibitor, single point]
43 | Cc1cccc(C(=O)Nc2ccc3oc(-c4ccncc4)nc3c2)c1 | – | inconclusive: 2.24 µM [inhibitor, single point]
44 | Cc1occc1-c1nnc(SCC(=O)N(C)C)o1 | – | inconclusive: 14.6 µM [activator, partial curve, poor fit]

Exported as tab-separated lines: entries from further up
Row	Compound	activity change, negative = inhibition	Potency
28	Cc1ncc(CO)c(CNc2ccc(Oc3ccccc3)cc2)c1O	–	inconclusive: 3.98 µM [inhibitor, full curve, poor fit]
29	COc1ccc(C(C(=O)NC(C)(C)C)N(C(=O)CCC(=O)Nc2cc(C)on2)c2ccc(C)c(C)c2)cc1 (stereo not given)	–	inconclusive: 6.31 µM [inhibitor, single point]
30	CCOC(=O)CN(Cc1ccc(OC)c(OC)c1)S(=O)(=O)c1ccc(OC)cc1	inactive: -21.2%	–
31	Cc1ccc(NC(=S)N(CCCN2CCC(C)CC2)Cc2ccco2)cc1C	–	inconclusive: 1.26 µM [inhibitor, single point]
32	O=C(Nc1cccc(Cl)c1)Nc1csc([N+](=O)[O-])c1	–	inconclusive: 35.5 µM [inhibitor, single point]
33	COc1ccc([N+](=O)[O-])cc1NCc1cccnc1	–	inconclusive: 0.562 µM [inhibitor, full curve, poor fit]
34	COc1ccc2c(c1)c1c(c(=O)n(-c3ccccc3C)c(=O)n1CC(=O)N1CCCC1)n2C	inactive: 6.33% [at 46.1 µM]	–
35	Cn1c(=O)[nH]c(=O)c2c1nc(N1CCNCC1)n2Cc1ccccc1	–	inconclusive: 1.26 µM [inhibitor, single point]
36	O=C(Nc1ccc(CN2CCOCC2)cc1)c1ccc(-c2ccc(Br)cc2)o1	–	inconclusive: 18.3 µM [inhibitor, single point]
37	COc1ccc(NC(=S)Nc2ccccn2)c(OC)c1	–	inconclusive: 0.631 µM [activator, single point]
38	Cc1ccc(S(=O)(=O)Oc2ccc(/C=N/NC(=O)c3nn(C)cc3[N+](=O)[O-])cc2)cc1	–	inconclusive: 1.16 µM [inhibitor, partial curve]
39	COc1cccc(CN2C(=O)CN(C3CCCCC3)C(=O)C2c2ccc(OC)c(OC)c2)c1 (stereo not given)	–	inconclusive: 35.5 µM [activator, single point]
40	CCCCOc1ccccc1C1NC(=O)CCC1[N+](=O)[O-] (stereo not given)	–	inconclusive: 1.26 µM [activator, single point]
41	CCNC(=S)/N=C(/Nc1ccccc1)Nc1nc(C)cc(C)n1	–	inconclusive: 35.5 µM [inhibitor, single point]
42	CCCCCn1cc2c(c1-c1ccc(Cl)cc1)c(=O)n(C)c(=O)n2C	–	inconclusive: 2.82 µM [inhibitor, single point]
43	Cc1cccc(C(=O)Nc2ccc3oc(-c4ccncc4)nc3c2)c1	–	inconclusive: 2.24 µM [inhibitor, single point]
44	Cc1occc1-c1nnc(SCC(=O)N(C)C)o1	–	inconclusive: 14.6 µM [activator, partial curve, poor fit]

(more compounds)

Row | Compound | activity change, negative = inhibition | Potency
45 | COc1cccc(CNc2ncc(Br)cc2Br)c1O | inactive: 7.4% | –
46 | COc1ccc(C(=O)c2coc3ccc(OC(C)=O)cc23)cc1 | – | inconclusive: 35.5 µM [inhibitor, single point]
47 | Clc1cccc(OCc2nc(-c3ccncc3)n[nH]2)c1 | inactive: -3.71% | –
48 | CCOc1ccc2nc(SCC(=O)N(CC(C)C)c3c(N)n(Cc4ccccc4)c(=O)[nH]c3=O)[nH]c2c1 | – | inconclusive: 10 µM [inhibitor, partial curve]
49 | COc1ccc(OCC(=O)Nc2cc(-c3nn(C)c(=O)c4ccccc34)ccc2OC)cc1 | – | inconclusive: 4.11 µM [inhibitor, single point]
50 | COc1cccc(N2CCN(Cc3nc4scc(-c5ccccc5)c4c(=O)[nH]3)CC2)c1 | – | inconclusive: 9.2 µM [inhibitor, partial curve]
51 | CSCCC(NS(=O)(=O)c1cccc(C(F)(F)F)c1)C(=O)N(C)Cc1ccc2c(c1)OCCO2 (stereo not given) | – | inconclusive: 11.2 µM [inhibitor, partial curve, poor fit]
52 | O=C(OCc1cccc(C(F)(F)F)c1)c1ccc(-c2nnn(Cc3ccc(F)cc3)n2)cc1 | – | inconclusive: 10 µM [activator, single point]
53 | CN(C)C(=S)Nc1cccc(-c2n[nH]c(=S)o2)c1 | – | inconclusive: 0.794 µM [inhibitor, partial curve, poor fit]
54 | CC(=O)Nc1nc(-c2cccc3ccccc23)cs1 | inactive: -12.9% [at 46.1 µM] | –
55 | COCc1cc(C)nc2sc3c(c12)NC(c1ccc(O)cc1)N(c1ccc(C)cc1)C3=O (stereo not given) | – | inconclusive: 25.1 µM [inhibitor, single point]
56 | COCCCn1c(SCc2nnc(-c3ccc(OC)c(OC)c3)o2)nc2ccccc2c1=O | – | inconclusive: 2.06 µM [inhibitor, partial curve, poor fit]
57 | CN(CCC#N)C(=O)CSc1nnc(-c2ccco2)n1N | – | inconclusive: 0.1 µM [inhibitor, full curve, poor fit]
58 | CSCCC(NS(=O)(=O)/C=C/c1ccccc1)C(=O)NCCc1ccc(S(N)(=O)=O)cc1 (stereo not given) | – | inconclusive: 11.2 µM [inhibitor, partial curve, poor fit]
59 | CCC1CCCCN1CCCNC(=O)CSc1nc2nc(C)c(Cc3ccc(C)cc3)c(C)n2n1 (stereo not given) | – | inconclusive: 25.1 µM [inhibitor, single point]
60 | CCc1cccc(NC(=O)CN2C(=O)CN=C(c3ccccc3F)c3cc(Cl)ccc32)c1 | – | inconclusive: 20 µM [inhibitor, partial curve, poor fit]
61 | O=C(Nc1sc2c(c1C(=O)O)CCCCC2)c1ccccc1F | – | inconclusive: 11.2 µM [inhibitor, single point]
62 | CC1CN(c2snnc2C=C2C(=O)OC(C)(C)OC2=O)CC(C)O1 (stereo not given) | – | inconclusive: 35.5 µM [activator, single point]
63 | COc1cc(N(C)C)ccc1C=c1c2ccccc2n2c1cc(-c1ccccc1)[n+]2C | – | inconclusive: 7.94 µM [inhibitor, partial curve, poor fit]
64 | NC(=O)c1ccccc1NC(=O)Cn1nc(Cc2cccnc2)c2ccccc2c1=O | inactive: -14.1% [at 46.1 µM] | –
65 | O=C(Nc1ccc(Cl)c(-c2nc3ccccc3[nH]2)c1)c1ccc2c(c1)OCO2 | – | inconclusive: 32.6 µM [inhibitor, single point]

— PubChem BioAssay AID540256 (National Center for Advancing Translational Sciences (NCATS), 2011)
